# Some of the results follow.
# B1: SspB C123 (Streptococcus gordonii), Q54186 (protein)
# chain: MAHFHYSSLLAQPQINKEIKNEDGVDIDRTLVAKQSIGKFELKTEALTAGRPKTTSFVLVDPLPTGYKFDLDATKAASTGFDTTYDEASHTVTFKATDETLATYNADLTKPVETLHPTVVGRVLNDGATYTNNFTLTVNDAYGIKSNVVRVTTPGKPNDPDNPNNNYIKPTKVNKNKEGLNIDGKEVLAGSTNYYELTWDLDQYKGDKSSKEAIQNGFYYVDDYPEEALDVRPDLVKVADEKGNQVSGVSVQQYDSLEAAPKKVQDLLKKANITVKGAFQLFSADNPEEFYKQYVSTGTSLVITDPMTVKSEFGKTGGKYENKAYQIDFGNGYATEVVVNNVPKITPKKDVTVSLDPTSENLDGQTVQLYQTFNYRLIGGFIPQNHSEELEDYSFVDDYDQAGDQYTGNYKTFSSLNLTMKDGSVIKAGTDLTSQTTAETDATNGIVTVRFKEDFLQKISLDSPFQAETYLQMRRIAIGTFENTYVNTVNKVAYASAAALEHHHHHH
# Tests used:
# Test in all cases: glycan array binding signal (z-score within array); higher = stronger binding
# Settings in all cases: glycan notation: IUPAC condensed, linker removed
# [1] = target: GlcNAc(b1-2)Gal(b1-3)GalNAc
# Method in brief: (§1)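 Glycan array binding is given as a within-array Z-score, which can be read as non-binding when negative. The arrays, 3228 of them, came from the Consortium for Functional Glycomics database and were retained only where the protein sequence was available. Z-scores were averaged across arrays of the same protein sequence at different concentrations or buffers and across linkers.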
# [2] = target: GlcNAc(b1-2)Man(a1-3)[GlcNAc(b1-2)Man(a1-6)]Man(b1-4)GlcNAc(b1-4)GlcNAc
# Method in brief: as §1
# [3] = target: GlcNAc(b1-2)Man(a1-3)[GlcNAc(b1-2)Man(a1-6)]Man(b1-4)GlcNAc(b1-4)[Fuc(a1-6)]GlcNAc
# Method in brief: as §1
# [4] = target: GlcNAc(b1-2)Man(a1-3)[GlcNAc(b1-4)][GlcNAc(b1-2)Man(a1-6)]Man(b1-4)GlcNAc(b1-4)GlcNAc
# Method in brief: as §1
# [5] = target: GlcNAc(b1-2)Man(a1-3)[GlcNAc(b1-4)][GlcNAc(b1-2)Man(a1-6)]Man(b1-4)GlcNAc(b1-4)[Fuc(a1-6)]GlcNAc
# Method in brief: as §1
# [6] = target: GlcNAc(b1-2)[GlcNAc(b1-4)]Man(a1-3)[GlcNAc(b1-2)Man(a1-6)]Man(b1-4)GlcNAc(b1-4)GlcNAc
# Method in brief: as §1
# [7] = target: GlcNAc(b1-2)[GlcNAc(b1-4)]Man(a1-3)[GlcNAc(b1-4)][GlcNAc(b1-2)Man(a1-6)]Man(b1-4)GlcNAc(b1-4)GlcNAc
# Method in brief: as §1
# [8] = target: GlcNAc(b1-2)[GlcNAc(b1-4)]Man(a1-3)[GlcNAc(b1-4)][GlcNAc(b1-2)[GlcNAc(b1-6)]Man(a1-6)]Man(b1-4)GlcNAc(b1-4)GlcNAc
# Method in brief: as §1
# [9] = target: GlcNAc(b1-2)[GlcNAc(b1-4)]Man(a1-3)[GlcNAc(b1-4)][GlcNAc(b1-2)[GlcNAc(b1-6)]Man(a1-6)]Man(b1-4)GlcNAc(b1-4)[Fuc(a1-6)]GlcNAc
# Method in brief: as §1
# [10] = target: GlcNAc(b1-2)[GlcNAc(b1-6)]Man(a1-6)[GlcNAc(b1-2)Man(a1-3)]Man(b1-4)GlcNAc(b1-4)GlcNAc
# Method in brief: as §1
# [11] = target: GlcNAc(b1-2)[GlcNAc(b1-6)]Man(a1-6)[GlcNAc(b1-2)Man(a1-3)]Man(b1-4)GlcNAc(b1-4)[Fuc(a1-6)]GlcNAc
# Method in brief: as §1
# [12] = target: GlcNAc(b1-2)[GlcNAc(b1-6)]Man(a1-6)[GlcNAc(b1-4)][GlcNAc(b1-2)Man(a1-3)]Man(b1-4)GlcNAc(b1-4)GlcNAc
# Method in brief: as §1
# GlcNAc(b1-3)Fuc = target: GlcNAc(b1-3)Fuc
# Method in brief: as §1
# GlcNAc(b1-3)Gal = target: GlcNAc(b1-3)Gal
# Method in brief: as §1
# [13] = target: GlcNAc(b1-3)Gal(b1-3)GalNAc
# Method in brief: as §1
# GlcNAc(b1-3)Gal(b1-4)Glc = target: GlcNAc(b1-3)Gal(b1-4)Glc
# Method in brief: as §1
# [14] = target: GlcNAc(b1-3)Gal(b1-4)GlcNAc
# Method in brief: as §1
# [15] = target: GlcNAc(b1-3)Gal(b1-4)GlcNAc(b1-2)Man(a1-3)[GlcNAc(b1-3)Gal(b1-4)GlcNAc(b1-2)Man(a1-6)]Man(b1-4)GlcNAc(b1-4)GlcNAc
# Method in brief: as §1
# [16] = target: GlcNAc(b1-3)Gal(b1-4)GlcNAc(b1-2)Man(a1-3)[GlcNAc(b1-3)Gal(b1-4)GlcNAc(b1-2)Man(a1-6)]Man(b1-4)GlcNAc(b1-4)[Fuc(a1-6)]GlcNAc
# Method in brief: as §1
# [17] = target: GlcNAc(b1-3)Gal(b1-4)GlcNAc(b1-2)[GlcNAc(b1-3)Gal(b1-4)GlcNAc(b1-6)]Man(a1-6)[GlcNAc(b1-3)Gal(b1-4)GlcNAc(b1-2)Man(a1-3)]Man(b1-4)GlcNAc(b1-4)GlcNAc
# Method in brief: as §1
# [18] = target: GlcNAc(b1-3)Gal(b1-4)GlcNAc(b1-3)Gal(b1-4)GlcNAc
# Method in brief: as §1
# [19] = target: GlcNAc(b1-3)Gal(b1-4)GlcNAc(b1-3)Gal(b1-4)GlcNAc(b1-2)Man(a1-3)[GlcNAc(b1-3)Gal(b1-4)GlcNAc(b1-3)Gal(b1-4)GlcNAc(b1-2)Man(a1-6)]Man(b1-4)GlcNAc(b1-4)GlcNAc
# Method in brief: as §1
binder,measurement,setting,value
B1,glycan array binding signal (z-score),[1],-0.188
same,glycan array binding signal (z-score),[2],-0.534
same,glycan array binding signal (z-score),[3],1.53
same,glycan array binding signal (z-score),[4],1.06
same,glycan array binding signal (z-score),[5],-0.492
same,glycan array binding signal (z-score),[6],-1.03
same,glycan array binding signal (z-score),[7],-1.11
same,glycan array binding signal (z-score),[8],-1.27
same,glycan array binding signal (z-score),[9],-0.632
same,glycan array binding signal (z-score),[10],1.83
same,glycan array binding signal (z-score),[11],-0.643
same,glycan array binding signal (z-score),[12],-0.514
same,glycan array binding signal (z-score),GlcNAc(b1-3)Fuc,-0.912
same,glycan array binding signal (z-score),GlcNAc(b1-3)Gal,0.925
same,glycan array binding signal (z-score),[13],-0.32
same,glycan array binding signal (z-score),GlcNAc(b1-3)Gal(b1-4)Glc,0.216
same,glycan array binding signal (z-score),[14],-1.06
same,glycan array binding signal (z-score),[15],-0.235
same,glycan array binding signal (z-score),[16],-0.345
same,glycan array binding signal (z-score),[17],1.16
same,glycan array binding signal (z-score),[18],-0.453
same,glycan array binding signal (z-score),[19],-0.12

# Reformatted with tabs: entries from further up
binder	measurement	setting	value
B1	glycan array binding signal (z-score)	[15]	-0.235
same	glycan array binding signal (z-score)	[16]	-0.345
same	glycan array binding signal (z-score)	[17]	1.16
same	glycan array binding signal (z-score)	[18]	-0.453
same	glycan array binding signal (z-score)	[19]	-0.12

# — the supplement of paper PMC8728848
